The target of assay [1] is p21-activated kinase 2 (PAK2) (mouse (endogenous in oocytes)) (UniProt Q8CIN4). In words: co-IP; 1500-2000 MI oocytes lysed in RIPA buffer with phosphatase inhibitors; supernatant incubated with anti-PAK2 or anti-PLK1 antibody (or IgG control) overnight at 4 °C, then protein G beads; eluates blotted for PAK2 and PLK1.
The target in assay [2] is polo-like kinase (PLK1) (mouse (endogenous in oocytes)) (UniProt Q07832). Description: proximity ligation; in situ PLA (Duolink Red Starter Kit Mouse/Rabbit) on fixed MI-stage mouse oocytes with anti-PAK2 and anti-PLK1 antibodies; oocytes injected with Pak2-siRNA as negative control; confocal microscopy.
For assay [3] the target is unchanged. Description: co-IP; 1500-2000 MI oocytes lysed in RIPA buffer with phosphatase inhibitors; supernatant incubated with anti-PAK2 or anti-PLK1 antibody (or IgG control) overnight at 4 °C, then protein G beads; eluates blotted for PAK2 and PLK1.

Chains of the proteins cited; added tags and fusions are not shown.
UniProt Q8CIN4: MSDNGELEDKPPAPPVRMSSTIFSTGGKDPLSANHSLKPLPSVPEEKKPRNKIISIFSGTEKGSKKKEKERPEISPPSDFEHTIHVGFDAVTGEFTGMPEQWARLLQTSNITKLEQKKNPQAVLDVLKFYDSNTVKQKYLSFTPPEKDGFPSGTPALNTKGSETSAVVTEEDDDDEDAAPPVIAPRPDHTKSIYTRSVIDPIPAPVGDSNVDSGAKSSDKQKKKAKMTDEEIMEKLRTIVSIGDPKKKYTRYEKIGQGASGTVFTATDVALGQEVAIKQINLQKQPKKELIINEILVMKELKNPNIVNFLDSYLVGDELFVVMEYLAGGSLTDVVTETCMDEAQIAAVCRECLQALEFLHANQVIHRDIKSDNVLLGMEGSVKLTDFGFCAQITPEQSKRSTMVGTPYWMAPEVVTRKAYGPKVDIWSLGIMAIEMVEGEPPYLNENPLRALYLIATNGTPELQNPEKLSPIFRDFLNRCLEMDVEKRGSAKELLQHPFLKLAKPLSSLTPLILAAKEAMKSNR
UniProt Q07832: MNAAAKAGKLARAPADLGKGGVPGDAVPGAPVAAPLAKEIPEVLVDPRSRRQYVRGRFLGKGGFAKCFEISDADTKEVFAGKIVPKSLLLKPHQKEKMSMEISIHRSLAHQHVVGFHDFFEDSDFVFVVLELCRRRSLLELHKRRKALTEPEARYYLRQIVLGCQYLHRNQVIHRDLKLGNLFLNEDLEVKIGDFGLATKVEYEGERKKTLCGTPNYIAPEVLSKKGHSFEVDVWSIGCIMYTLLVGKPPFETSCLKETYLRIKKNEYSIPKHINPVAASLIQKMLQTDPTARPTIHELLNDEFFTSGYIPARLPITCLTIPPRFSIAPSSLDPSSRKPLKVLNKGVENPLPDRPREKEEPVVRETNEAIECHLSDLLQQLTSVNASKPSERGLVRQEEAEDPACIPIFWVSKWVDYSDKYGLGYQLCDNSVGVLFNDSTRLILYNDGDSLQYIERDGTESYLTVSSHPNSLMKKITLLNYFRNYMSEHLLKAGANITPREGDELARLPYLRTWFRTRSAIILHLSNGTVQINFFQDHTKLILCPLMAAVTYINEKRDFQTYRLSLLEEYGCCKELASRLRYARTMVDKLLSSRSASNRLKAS

No constants are given. Whether binding was seen depends on the method and setting. Binding seen in cells or lysates may run through a third protein. Some binding calls cover weakened binding; strength is not graded here.

With “polo-like kinase (PLK1) (from UniProt Q07832 1-603)”, in assay [1], the binding entry is listed as “binds”.

Turning to “p21-activated kinase 2 (PAK2) (from UniProt Q8CIN4 1-524)”, the binding entry in assay [2] and in assay [3] was “binds” in each case.

The values above are taken from PMC9947007.
